The supplement of paper PMC8007513
Some of the results follow. Most values come without repeats; read them as rough.

test system: Saccharomyces cerevisiae BY4743; assay: growth (OD600) with compound + IPBC relative to untreated control; higher = less growth inhibition; conditions: compound concentration: 133 uM; IPBC concentration: 0.5 ug/ml; 20 h
Method: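 NMCCC compounds (133 uM) combined with IPBC (0.5 ug/ml) against Saccharomyces cerevisiae BY4743 in YPD, 96-well plates. Growth was read as OD600 at 20 h and expressed as % of the untreated control. Single pass.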

Row | Structure (SMILES) | growth [%]
1 | CN1C(=O)\C=C(CSC2=NN=C(NC3CC3)S2)/N(C)C1=O + CCCCNC(=O)OCC#CI [3-iodo-2-propynyl butylcarbamate (IPBC)] | 110
2 | CC(C)CC(=O)NC(C)C(c1cccs1)N1CCN(c2ccccc2)CC1 (configuration not stated) + CCCCNC(=O)OCC#CI [3-iodo-2-propynyl butylcarbamate (IPBC)] | 102
3 | O=C(CCNc1nc(Cl)nc2nc[nH]c12)NCCc1c[nH]cn1 + CCCCNC(=O)OCC#CI [3-iodo-2-propynyl butylcarbamate (IPBC)] | 104
4 | CCOC(=O)c1sc(NC(=O)CSc2n[nH]c(CC(C)C)n2)nc1C + CCCCNC(=O)OCC#CI [3-iodo-2-propynyl butylcarbamate (IPBC)] | 94.8
5 | COc1ccc(-c2noc(CC(=O)N(CCC#N)c3ccccc3)n2)cc1 + CCCCNC(=O)OCC#CI [3-iodo-2-propynyl butylcarbamate (IPBC)] | 104
6 | Cc1nn(C)c(C)c1NC(=O)CSc1nnc(Nc2ccc(OC(F)(F)F)cc2)s1 + CCCCNC(=O)OCC#CI [3-iodo-2-propynyl butylcarbamate (IPBC)] | 93.6
7 | COc1ccc(-n2ccnc2SCC(=O)NCC2CN(CC(C)C)CCO2)cc1 (configuration not stated) + CCCCNC(=O)OCC#CI [3-iodo-2-propynyl butylcarbamate (IPBC)] | 98.6
8 | COc1cccc(CNC(=O)N2CCCn3nc(C)cc32)c1 + CCCCNC(=O)OCC#CI [3-iodo-2-propynyl butylcarbamate (IPBC)] | 102
9 | CCCCC(=O)Nc1cc(O)nc2nc(-c3ccc(Cl)cc3)nn12 + CCCCNC(=O)OCC#CI [3-iodo-2-propynyl butylcarbamate (IPBC)] | 86.5
10 | Cc1cc(C)c2c(N)c(-c3ccccn3)sc2n1 + CCCCNC(=O)OCC#CI [3-iodo-2-propynyl butylcarbamate (IPBC)] | 81.4
11 | CN(Cc1cnn(Cc2ccccc2)c1)C(=O)c1cc(Cl)ccc1Cl + CCCCNC(=O)OCC#CI [3-iodo-2-propynyl butylcarbamate (IPBC)] | 91.3
12 | COc1ccc(S(=O)(=O)N(C)C)cc1NC(=O)CNC(c1ccccc1)C(C)C (configuration not stated) + CCCCNC(=O)OCC#CI [3-iodo-2-propynyl butylcarbamate (IPBC)] | 90.8
13 | CCOC(=O)C1CCN(C(=O)CCS(=O)(=O)c2ccc3c(c2)CC(C)N3C(=O)CC)CC1 (configuration not stated) + CCCCNC(=O)OCC#CI [3-iodo-2-propynyl butylcarbamate (IPBC)] | 88.7
14 | COc1cc(Br)c(CC(=O)Nc2cc(C)ccn2)cc1OC + CCCCNC(=O)OCC#CI [3-iodo-2-propynyl butylcarbamate (IPBC)] | 90.1
15 | CC1CCN(C(=O)C(NC(=O)NC(C)c2cccs2)c2ccccc2)CC1 (configuration not stated) + CCCCNC(=O)OCC#CI [3-iodo-2-propynyl butylcarbamate (IPBC)] | 96.7
16 | C=C1c2ccccc2C(=O)N1CC(=O)Nc1ccc(Cl)c(Cl)c1 + CCCCNC(=O)OCC#CI [3-iodo-2-propynyl butylcarbamate (IPBC)] | 105
17 | CCOC(=O)c1ccc(CSc2nc[nH]n2)o1 + CCCCNC(=O)OCC#CI [3-iodo-2-propynyl butylcarbamate (IPBC)] | 91.1
18 | CCOC(=O)C1CCN(CC1)C(=O)N\C2=C\N(C)C(=O)C3=CC=CC=C23 + CCCCNC(=O)OCC#CI [3-iodo-2-propynyl butylcarbamate (IPBC)] | 101
19 | Cc1c(C(=O)Nc2ccc(C(=O)O)cc2)oc2c1C(=O)CC(C)(C)C2 + CCCCNC(=O)OCC#CI [3-iodo-2-propynyl butylcarbamate (IPBC)] | 104
20 | COc1ccc(N(CC(=O)NCC2CCCO2)S(=O)(=O)c2c(C)noc2C)cc1 (configuration not stated) + CCCCNC(=O)OCC#CI [3-iodo-2-propynyl butylcarbamate (IPBC)] | 91.9
21 | CCn1c(SCC(=O)Nc2cccc(C#N)c2)nnc1N1CCOCC1 + CCCCNC(=O)OCC#CI [3-iodo-2-propynyl butylcarbamate (IPBC)] | 99.5
22 | O=C(NCc1cc(-c2ccccc2)no1)C(=O)Nc1cc(F)cc(F)c1 + CCCCNC(=O)OCC#CI [3-iodo-2-propynyl butylcarbamate (IPBC)] | 95.8

A different layout for some results above.
CN1C(=O)\C=C(CSC2=NN=C(NC3CC3)S2)/N(C)C1=O + CCCCNC(=O)OCC#CI [3-iodo-2-propynyl butylcarbamate (IPBC)]
  growth [%]: 110
CC(C)CC(=O)NC(C)C(c1cccs1)N1CCN(c2ccccc2)CC1 (configuration not stated) + CCCCNC(=O)OCC#CI [3-iodo-2-propynyl butylcarbamate (IPBC)]
  growth [%]: 102
